According to patent EP0664129A2, “Epicholesterol for treating dyslipidemia” (PHARMACIA S.p.A., priority 1994, dated 1995):

Experiment: Gas liquid chromatography of unesterified sterols in plasma and liver of mice fed enriched diets
Assay type: in vivo
Conditions: 1.5% sterol enriched diet, Mean ± SD, n=3; for Percent Distribution Dihydrocholesterol (unesterified sterol content): nd: not detectable
Procedure: Male Sprague Dawley rats weighing 250 g and male CD mice weighing 22-25 g (Charles River) were housed in rooms maintained at 21±1°C with relative humidity 50-60% and a 12 hours light-dark cycle. After a week of housing, the animals were allocated to the different experimental groups and received one of the following diets: • a) rat or mouse chow diet, containing 0.5% sodium cholate; • b) cholesterol enriched diet, containing 0.5% sodium cholate and 1.5% cholesterol; • c) epicholesterol enriched diet, containing 0.5% sodium cholate and 1.5% epicholesterol; • d) epicholesterol and cholesterol enriched diet containing 0.5% sodium cholate and 1.5% of both sterols. Weight of the animals and food consumption were recorded daily.
After overnight fasting, the animals were anesthetized with sodium pentobarbital (50 mg/kg body weight) and exsanguinated from the abdominal aorta. Plasma was obtained by low speed (3000 g for 10 min) centrifugation of whole blood containing Na₂EDTA as anticoagulant.
Plasma lipid extracts were prepared according to Bligh E.G., Dyer W.J., Can. J. Bioch. Physiol, 31, 911, 1959.
Liver specimens (500 mg) were excised from the lateral liver lobe, washed in ice-cold saline, and immediately placed on dry-ice and stored at -80°C. They were extracted according to the method of Folch J. et al., J. Biol. Chem. , 226, 497, 1957, as modified by Carlson L.A., J. Atheroscler. Res., 3, 334, 1963.
Lipids extract from plasma and liver were separated by TLC on Silica Gel plates from Merck using petroleum ether 40-70°/diethyl ether/acetic acid (80:20:1) as developing system. Cholesterol, epicholesterol, dihydrocholesterol, and 7-keto-cholesterol as representative of the oxysterol class of sterols migrated with very similar Rf and could be recovered as a single area from the TLC plate. These sterols were eluted from the silica using chloroform and were dried by evaporation under N₂. The samples were redissolved in pyridine and derivatizated adding an equal volume of MBSTFA [N-methyl-N(tert-butyldimethylsilyl)Trifluoroacetamide].
After 20 minutes at room temperature the samples were analyzed by GLC according to Smith N.B., Lipids, 17, 464, 1982, on a Carlo Erba Mega 3000 gaschromatographer equipped with a flame ionization detector and a 25 m OV1 column (0.2 mm id., film thickness 0.2-0.25). He was used as carrier at 100 Kps. The splitless injection technique was used and 1-2 µl sample were injected. […] The injection and the detector temperatures were respectively 340°C and 350°C. Retention time of cholesterol, epicholesterol, dihydrocholesterol and 7keto-cholesterol were determined by injecting pure sterols.

SMILES | Percent Distribution Cholesterol (unesterified sterol content) (mice liver) [%] | Percent Distribution Oxysterols (unesterified sterol content) (mice liver) [%] | Percent Distribution Cholesterol (unesterified sterol content) (mice plasma) [%] | Percent Distribution Oxysterols (unesterified sterol content) (mice plasma) [%] | Percent Distribution Dihydrocholesterol (unesterified sterol content) (mice liver) [%] | Percent Distribution Dihydrocholesterol (unesterified sterol content) (mice plasma) [%]
CC(C)CCC[C@@H](C)[C@H]1CC[C@H]2[C@@H]3CC=C4C[C@@H](O)CC[C@]4(C)[C@H]3CC[C@]12C [Cholesterol] | 83.6±7.7 | 16.4±7.7 | 97.4±0.8 | 3.3±1.9 |  | 
CC(C)CCC[C@@H](C)[C@H]1CC[C@H]2[C@@H]3CC=C4C[C@H](O)CC[C@]4(C)[C@H]3CC[C@]12C [Epicholesterol, cholest-5-en-3α-ol] | 75.7±4.5 | 14.3±5.8 | 87.4±1.0 | 1.5±1.3 | 9.0±1.5 | 8.5±0.9
